Record: PubChem BioAssay AID686943 (Drosophila RNAi Screening Center, 2013)
In all, the deposit lists about 23,000 reagents; this is a random part of those that have a named target and a result. 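Extra replicates exist only for a retested subset of genes; insulin dose and duration not given; both raised and lowered dpERK matter.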 Reagents against one gene are numbered here. Names joined by + are all predicted targets of the reagent. Not all columns of the deposit are shown. Not stated in the record: the amount of reagent, the time to read-out.

Assay: 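Fly genes whose loss alters ERK activation after insulin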 (primary screen)
System: Drosophila S2R+ haemocyte-like cells expressing YFP-tagged ERK (Rolled)
Reagent: long dsRNA against Drosophila genes
Treatment: insulin stimulation versus unstimulated cells; dose and duration not given
Detection: 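Antibody staining for doubly phosphorylated ERK divided by ERK-YFP signal, as plate z-scores, in insulin-treated and untreated cells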
Reading the numbers: replicate 1, z-score of dpERK with insulin: higher = more active ERK per ERK-YFP after insulin

replicate 1, z-score of dpERK with insulin, by target and reagent
CG3987: #1 0
kar (karmoisin): #1 -0.23
Atg8a (Autophagy-related 8a): #1 1.94
PGRP-LD + Cralbp + Pmi: #1 0.68
Fs (Follistatin): #1 1.06; #2 1.7
PolZ1 (DNA polymerase zeta subunit 1): #1 0.09
MESR4 (Misexpression suppressor of ras 4): #1 -1.15
SdhBL (Succinate dehydrogenase, subunit B (iron-sulfur)-like): #1 0.22
Grx3 (Glutaredoxin 3): #1 -0.51
CG43293: #1 0.39
Jhedup (Juvenile hormone esterase duplication): #1 0.41
ari-1 (ariadne 1): #1 1.01; #2 2.21
AOX2 (Aldehyde oxidase 2): #1 0.2
GCS2alpha (Glucosidase 2 alpha subunit): #1 0.77
Sr-CI (Scavenger receptor class C, type I): #1 0.05
CG4714: #1 0.15
CG11893: #1 -0.12
ND-13B (NADH dehydrogenase (ubiquinone) 13 kDa B subunit): #1 -0.67
CG5214: #1 0.19; #2 -0.7
CG34056: #1 0.4

Copied from above (4 entries):
replicate 1, z-score of dpERK with insulin, by target and reagent
PGRP-LD + Cralbp + Pmi: #1 0.68
Fs (Follistatin): #1 1.06; #2 1.7
PolZ1 (DNA polymerase zeta subunit 1): #1 0.09
